This is an account of results in publication PMC10929191.

No constants are given. Whether binding was seen depends on the method and setting. In cells and extracts the contact can be indirect. Some entries that bind do so weakly or less than the wild type. For part of these data: Sequences can lack the tags named with a protein.

Test [1] addresses T1, TANK-binding kinase 1 (TBK1), endogenous in neonatal rat cardiomyocytes (rat (endogenous in NRCMs)) (UniProt D4A7D3).
T1 sequence: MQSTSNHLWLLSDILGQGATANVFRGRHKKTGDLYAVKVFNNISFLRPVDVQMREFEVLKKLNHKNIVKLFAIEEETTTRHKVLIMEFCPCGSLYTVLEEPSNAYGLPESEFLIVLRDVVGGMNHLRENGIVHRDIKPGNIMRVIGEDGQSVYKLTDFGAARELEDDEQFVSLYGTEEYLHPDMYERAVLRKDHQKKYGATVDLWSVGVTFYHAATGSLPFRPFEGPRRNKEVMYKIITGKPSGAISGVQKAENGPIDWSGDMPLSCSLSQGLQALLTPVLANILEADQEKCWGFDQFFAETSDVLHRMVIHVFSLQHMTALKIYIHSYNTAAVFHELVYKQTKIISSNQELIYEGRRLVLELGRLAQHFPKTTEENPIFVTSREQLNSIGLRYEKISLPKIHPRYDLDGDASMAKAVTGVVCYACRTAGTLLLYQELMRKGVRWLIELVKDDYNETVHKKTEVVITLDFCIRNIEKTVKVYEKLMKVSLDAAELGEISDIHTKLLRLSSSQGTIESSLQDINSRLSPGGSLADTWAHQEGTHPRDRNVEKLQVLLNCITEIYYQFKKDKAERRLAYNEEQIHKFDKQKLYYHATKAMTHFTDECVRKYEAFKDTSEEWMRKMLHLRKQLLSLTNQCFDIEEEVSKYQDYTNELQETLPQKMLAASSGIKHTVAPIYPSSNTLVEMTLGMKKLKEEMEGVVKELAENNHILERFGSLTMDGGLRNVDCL
Nature of the test: co-IP; endogenous proteins in NRCM lysate; precipitated with anti-USP38 or anti-TBK1 and magnetic protein A/G beads, anti-IgG as control, western blot; also with NRCMs stimulated with Ang II (interaction enhanced).

For test [2], the target named is T2, Flag-USP38 (exogenous USP38 expressed from Flag-AdUSP38) (rat) (UniProt D3Z8K5).
T2 sequence: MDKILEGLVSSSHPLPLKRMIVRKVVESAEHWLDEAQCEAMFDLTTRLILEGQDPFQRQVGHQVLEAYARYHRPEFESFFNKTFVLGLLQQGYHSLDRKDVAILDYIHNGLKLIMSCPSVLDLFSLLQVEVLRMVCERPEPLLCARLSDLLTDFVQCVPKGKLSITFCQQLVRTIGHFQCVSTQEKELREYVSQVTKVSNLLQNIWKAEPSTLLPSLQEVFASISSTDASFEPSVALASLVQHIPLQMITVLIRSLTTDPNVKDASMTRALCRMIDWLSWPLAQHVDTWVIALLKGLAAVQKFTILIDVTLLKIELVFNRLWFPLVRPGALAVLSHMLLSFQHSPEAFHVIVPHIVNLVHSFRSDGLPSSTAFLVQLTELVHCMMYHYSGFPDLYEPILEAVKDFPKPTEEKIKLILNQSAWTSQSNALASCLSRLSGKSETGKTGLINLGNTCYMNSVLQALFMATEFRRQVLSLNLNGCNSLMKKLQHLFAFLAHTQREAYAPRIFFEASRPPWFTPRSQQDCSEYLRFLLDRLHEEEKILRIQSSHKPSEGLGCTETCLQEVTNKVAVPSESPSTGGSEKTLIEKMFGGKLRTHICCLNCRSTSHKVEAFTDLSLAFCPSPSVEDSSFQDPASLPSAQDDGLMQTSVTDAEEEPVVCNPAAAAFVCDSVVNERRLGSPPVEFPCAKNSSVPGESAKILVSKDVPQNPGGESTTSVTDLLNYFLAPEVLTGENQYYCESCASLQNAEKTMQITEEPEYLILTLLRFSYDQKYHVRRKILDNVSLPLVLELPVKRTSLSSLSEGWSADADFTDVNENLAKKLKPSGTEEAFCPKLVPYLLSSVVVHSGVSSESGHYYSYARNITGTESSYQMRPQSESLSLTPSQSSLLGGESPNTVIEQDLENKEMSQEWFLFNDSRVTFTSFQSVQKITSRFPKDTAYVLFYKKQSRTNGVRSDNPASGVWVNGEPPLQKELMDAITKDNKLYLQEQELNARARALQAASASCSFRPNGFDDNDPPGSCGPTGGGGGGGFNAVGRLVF
The experiment in a line: co-IP; NRCMs transfected with Flag-AdUSP38, MG132 added 6 h before harvest; IgG antibody as negative control; western blot. A general note: A western blot detects proteins with antibodies after separation by electrophoresis.

The target of test [3] is T3, Ubiquitin specific protease 38 (USP38), endogenous in neonatal rat cardiomyocytes (rat (endogenous in NRCMs)) (UniProt D3Z8K5).
T3 sequence: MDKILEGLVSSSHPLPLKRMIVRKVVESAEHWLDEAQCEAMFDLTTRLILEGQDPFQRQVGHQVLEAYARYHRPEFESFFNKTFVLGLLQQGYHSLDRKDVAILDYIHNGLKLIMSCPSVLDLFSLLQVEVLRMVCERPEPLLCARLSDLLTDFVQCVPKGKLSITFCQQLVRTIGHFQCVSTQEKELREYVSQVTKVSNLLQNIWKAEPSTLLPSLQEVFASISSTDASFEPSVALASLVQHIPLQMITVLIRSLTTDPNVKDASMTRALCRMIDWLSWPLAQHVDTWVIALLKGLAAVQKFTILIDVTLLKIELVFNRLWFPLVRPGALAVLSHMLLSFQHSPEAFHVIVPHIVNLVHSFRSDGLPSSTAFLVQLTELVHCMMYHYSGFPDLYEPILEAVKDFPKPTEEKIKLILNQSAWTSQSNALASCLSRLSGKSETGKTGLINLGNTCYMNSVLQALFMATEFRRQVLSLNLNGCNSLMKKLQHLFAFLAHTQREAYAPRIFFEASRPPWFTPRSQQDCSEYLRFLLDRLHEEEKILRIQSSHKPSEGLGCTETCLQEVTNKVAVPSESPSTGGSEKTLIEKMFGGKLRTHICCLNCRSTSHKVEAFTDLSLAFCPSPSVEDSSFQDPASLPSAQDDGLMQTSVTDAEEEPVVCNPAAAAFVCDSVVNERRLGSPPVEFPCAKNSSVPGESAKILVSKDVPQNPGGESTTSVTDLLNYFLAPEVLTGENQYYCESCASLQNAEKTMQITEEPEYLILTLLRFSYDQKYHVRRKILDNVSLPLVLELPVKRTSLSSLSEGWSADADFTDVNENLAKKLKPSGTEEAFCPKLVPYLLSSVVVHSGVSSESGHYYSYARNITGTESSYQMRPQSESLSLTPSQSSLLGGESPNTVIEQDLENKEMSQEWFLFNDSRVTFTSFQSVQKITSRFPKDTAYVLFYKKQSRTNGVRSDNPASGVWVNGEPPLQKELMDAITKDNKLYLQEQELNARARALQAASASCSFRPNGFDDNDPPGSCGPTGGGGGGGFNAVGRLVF
Nature of the test: co-IP; endogenous proteins in NRCM lysate; precipitated with anti-USP38 or anti-TBK1 and magnetic protein A/G beads, anti-IgG as control, western blot; also with NRCMs stimulated with Ang II (interaction enhanced).

B1: Ubiquitin specific protease 38 (USP38), endogenous in neonatal rat cardiomyocytes (enzyme, UniProt D3Z8K5 1-1041)
chain: MDKILEGLVSSSHPLPLKRMIVRKVVESAEHWLDEAQCEAMFDLTTRLILEGQDPFQRQVGHQVLEAYARYHRPEFESFFNKTFVLGLLQQGYHSLDRKDVAILDYIHNGLKLIMSCPSVLDLFSLLQVEVLRMVCERPEPLLCARLSDLLTDFVQCVPKGKLSITFCQQLVRTIGHFQCVSTQEKELREYVSQVTKVSNLLQNIWKAEPSTLLPSLQEVFASISSTDASFEPSVALASLVQHIPLQMITVLIRSLTTDPNVKDASMTRALCRMIDWLSWPLAQHVDTWVIALLKGLAAVQKFTILIDVTLLKIELVFNRLWFPLVRPGALAVLSHMLLSFQHSPEAFHVIVPHIVNLVHSFRSDGLPSSTAFLVQLTELVHCMMYHYSGFPDLYEPILEAVKDFPKPTEEKIKLILNQSAWTSQSNALASCLSRLSGKSETGKTGLINLGNTCYMNSVLQALFMATEFRRQVLSLNLNGCNSLMKKLQHLFAFLAHTQREAYAPRIFFEASRPPWFTPRSQQDCSEYLRFLLDRLHEEEKILRIQSSHKPSEGLGCTETCLQEVTNKVAVPSESPSTGGSEKTLIEKMFGGKLRTHICCLNCRSTSHKVEAFTDLSLAFCPSPSVEDSSFQDPASLPSAQDDGLMQTSVTDAEEEPVVCNPAAAAFVCDSVVNERRLGSPPVEFPCAKNSSVPGESAKILVSKDVPQNPGGESTTSVTDLLNYFLAPEVLTGENQYYCESCASLQNAEKTMQITEEPEYLILTLLRFSYDQKYHVRRKILDNVSLPLVLELPVKRTSLSSLSEGWSADADFTDVNENLAKKLKPSGTEEAFCPKLVPYLLSSVVVHSGVSSESGHYYSYARNITGTESSYQMRPQSESLSLTPSQSSLLGGESPNTVIEQDLENKEMSQEWFLFNDSRVTFTSFQSVQKITSRFPKDTAYVLFYKKQSRTNGVRSDNPASGVWVNGEPPLQKELMDAITKDNKLYLQEQELNARARALQAASASCSFRPNGFDDNDPPGSCGPTGGGGGGGFNAVGRLVF
On to B1, for which the binding result in test [1] was “binds”.

B2: TANK-binding kinase 1 (TBK1), endogenous in neonatal rat cardiomyocytes (enzyme, UniProt D4A7D3 1-729)
chain: MQSTSNHLWLLSDILGQGATANVFRGRHKKTGDLYAVKVFNNISFLRPVDVQMREFEVLKKLNHKNIVKLFAIEEETTTRHKVLIMEFCPCGSLYTVLEEPSNAYGLPESEFLIVLRDVVGGMNHLRENGIVHRDIKPGNIMRVIGEDGQSVYKLTDFGAARELEDDEQFVSLYGTEEYLHPDMYERAVLRKDHQKKYGATVDLWSVGVTFYHAATGSLPFRPFEGPRRNKEVMYKIITGKPSGAISGVQKAENGPIDWSGDMPLSCSLSQGLQALLTPVLANILEADQEKCWGFDQFFAETSDVLHRMVIHVFSLQHMTALKIYIHSYNTAAVFHELVYKQTKIISSNQELIYEGRRLVLELGRLAQHFPKTTEENPIFVTSREQLNSIGLRYEKISLPKIHPRYDLDGDASMAKAVTGVVCYACRTAGTLLLYQELMRKGVRWLIELVKDDYNETVHKKTEVVITLDFCIRNIEKTVKVYEKLMKVSLDAAELGEISDIHTKLLRLSSSQGTIESSLQDINSRLSPGGSLADTWAHQEGTHPRDRNVEKLQVLLNCITEIYYQFKKDKAERRLAYNEEQIHKFDKQKLYYHATKAMTHFTDECVRKYEAFKDTSEEWMRKMLHLRKQLLSLTNQCFDIEEEVSKYQDYTNELQETLPQKMLAASSGIKHTVAPIYPSSNTLVEMTLGMKKLKEEMEGVVKELAENNHILERFGSLTMDGGLRNVDCL
In the case of B2, the binding result in test [2] and in test [3] was “binds” in each case.
